The text below walks through data of publication PMC4423191.

Sequences of proteins named here, by UniProt entry; tags and fusion partners are left off.
UniProt Q9BUH6: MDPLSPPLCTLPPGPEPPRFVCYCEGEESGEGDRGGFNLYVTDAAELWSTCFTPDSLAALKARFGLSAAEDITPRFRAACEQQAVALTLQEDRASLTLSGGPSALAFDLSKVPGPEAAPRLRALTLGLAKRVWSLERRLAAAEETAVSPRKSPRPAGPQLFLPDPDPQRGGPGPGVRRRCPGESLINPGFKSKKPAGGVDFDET
UniProt Q13426: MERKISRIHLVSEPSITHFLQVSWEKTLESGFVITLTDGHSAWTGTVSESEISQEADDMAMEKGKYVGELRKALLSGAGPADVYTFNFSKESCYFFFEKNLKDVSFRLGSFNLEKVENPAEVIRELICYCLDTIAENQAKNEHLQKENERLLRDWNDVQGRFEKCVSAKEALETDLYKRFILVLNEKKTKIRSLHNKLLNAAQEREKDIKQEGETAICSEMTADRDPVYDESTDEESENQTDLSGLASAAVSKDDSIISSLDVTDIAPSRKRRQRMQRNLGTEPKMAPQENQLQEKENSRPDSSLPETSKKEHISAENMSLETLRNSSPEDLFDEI

In the assay the target is FLAG-tagged XLS (c9orf142) (human) (UniProt Q9BUH6). As to the kind of experiment: co-IP; anti-FLAG IP of FLAG-XLS from nuclear extracts of transiently transfected HEK293S cells (untreated or 10 Gy X-ray, 30 min recovery), FLAG peptide elution, immunoblot; control pCMX-LacZ. (A western blot detects proteins with antibodies after separation by electrophoresis.)

These are yes or no findings as the source states them, for the method shown. In cells and extracts the contact can be indirect. Some results given as binding are weak or reduced against the parent protein; the word gives no strength.

With XRCC4 (from UniProt Q13426 1-336), the binding entry is given as “binds”.
